Results on twelve substances are retold here after patent EP4796557A1 (priority 2023, dated 2025).

A short description of data set [1]: general procedure: Fmoc solid-phase peptide synthesis; Rink Amide MBHA resin (0.3 mmol/g); CTC resin (0.83 or 0.64 mmol/g); HBTU/DIEA. To be noted: TFA; for isolated mass: scale 2.0 mmol.
Data set [2] can be described thus: general procedure: Fmoc solid-phase peptide synthesis; CTC resin; HBTU/DIEA. As to conditions: whole synthesis, scale 2.0 mmol, TFA.
Data set [3] can be described thus: general procedure: Fmoc solid-phase peptide synthesis; Rink Amide MBHA; HBTU/DIEA. As to conditions: whole synthesis, scale 0.1 mmol, TFA.
Data set [4] in a line: general procedure: Fmoc solid-phase peptide synthesis; 2-CTC resin; HBTU/DIEA. To be noted: whole synthesis, scale 1.50 mmol, TFA.
[5] abbreviates: whole synthesis, scale of the general procedure 0.1 mmol (Rink Amide), 1.0-2.0 mmol (CTC).

For some assays here: Strings that start with PEPTIDE1 are HELM notation: dots part the residues, brackets hold end groups and non-standard residues.

As for “(6-(2,5-dioxo-2,5-dihydro-1H-pyrrol-1-yl)hexanoyl)glycyl-L-prolyl-L-leucylglycyl-L-leucylglycylglycyl-L-phenylalanyl-glycine”, the “final purity (method not given)” value in data set [1] (setting [5]) is 99.5%. “(6-(2,5-dioxo-2,5-dihydro-1H-pyrrol-1-yl)hexanoyl)glycyl-L-prolyl-L-seryl-L-alanyl-L-leucine”: the crude mass in data set [2] stood at 1.2 g. The isolated mass in data set [1] (whole synthesis) amounted to 90 mg. In addition, the “final purity (method not given)” value in data set [1] (setting [5]) worked out at 99.6%.

Turning to “PEPTIDE1{[ac].P.R.G.L.V.[Cit].[am]}$$$$V2.0”, in data set [3], the crude mass is reported as 0.20 g and the isolated mass worked out at 7.4 mg. Also, in data set [1] (setting [5]), the “final purity (method not given)” value was 99.5% and the isolated yield was found to be 9.97%. With “PEPTIDE1{[MC].P.[Cit].N.L.V.[Cit].[PAB-DX8951]}$$$$V2.0”, in data set [1] (conjugation step), the conjugation yield is listed as 4.43% and the “final purity (method not given)” value was 88.9%. As to “4-((6S,12S,15S,18S)-1-amino-6-((S)-1-((6-(2,5-dioxo-2,5-dihydro-1H-py rrol-1-yl)hexyl)-L-histidyl)pyrrolidin-2-carboxamido)-1-imino-12-isobutyl-15-isopropyl-7,10,13,16 -tetraoxo-18-(3-ureidopropyl)-2,8,11,14,17-pentaazanonan-19-amido)benzyl((1S,9S)-9-ethyl)-5-flu”, the step yield in data set [1] (late stage modification step) is reported as 24.5%.

Regarding “(6-(2,5-dioxo-2,5-dihydro-1H-pyrrol-1-yl)hexanoyl)glycyl-L-prolyl-L-arginylglycyl-L leucine”, the crude mass in data set [2] is reported as 1.4 g. In addition, the isolated mass in data set [1] (whole synthesis) turned out to be 120 mg. For the same substance, the “final purity (method not given)” value in data set [1] (setting [5]) was 99.0%. Substance “PEPTIDE1{[MC].P.A.S.L.V.[Cit].[PAB-DX8951]}$$$$V2.0” had a conjugation yield in data set [1] (conjugation step) of 22.3%. Regarding “(6-(2,5-dioxo-2,5-dihydro-1H-pyrrol-1-yl)hexanoyl)glycyl-L-prolyl-L-arginylglycyl-L-leucylglycylglycyl-L-phenylalanyl-glycine”, the “final purity (method not given)” value in data set [1] (setting [5]) is reported as 99.1%. As for “(6-(2,5-dioxo-2,5-dihydro-1H-pyrrol-1-yl)hexanoyl)glycyl-L-prolyl-L-alanyl-glycyl-L-leucylglycylglycyl-L-phenylalanyl-glycine”, the “final purity (method not given)” value in data set [1] (setting [5]) worked out at 99.8%. Take “((S)-2-((S)-1-((6-(2,5-dioxo-2,5-dihydro-1H-pyrrol-1-yl)hexanoyl)-L-seryl)pyrrolidin-2-carboxamido)-5-ureidopentanoyl)-L-seryl-L-leucine”: in data set [4], the “final purity (method not given)” value is on record as 99.67% and the isolated yield was 79.3%. In data set [1] (conjugation step), “4-((6S,9S,12S,15S,18S)-1-amino-9-(2-amino-2-oxoethyl)-6-((S)-1-(6-(2, 5-dioxo-2,5-dihydro-1H-pyrrol-1-yl)hexanoyl)-L-seryl)pyrrolidin-2-carboxamido)-1-imino-12-isob utyl-15-isopropyl-7,10,13,16-tetraoxo-18-(3-ureidopropyl)-2,8,11,14,17-pentaazanonadecan-19-ami do)benzyl((1S,9S)” came in with a conjugation yield of 15.9%. “(6-(2,5-dioxo-2,5-dihydro-1H-pyrrol-1-yl)hexanoyl)glycyl-L-prolyl-L-alanyl-L-seryl-L-leucine” returned a crude mass in data set [2] of 1.2 g. Further, in data set [1] (whole synthesis), the isolated mass was 110 mg. In data set [1] (setting [5]), the “final purity (method not given)” value stood at 99.8%.
